Assay results as given in PMC11827635 (Science Advances, 2025).
Results are given in words; binding and its absence hold for the method and conditions named. Some binding calls cover weakened binding; strength is not graded here.

Protein sequences, listed by entry. Tags and fused reporters are not part of them. Lines headed by an entry give the natural chain unless they say otherwise; changes in a name come on top. Chains listed by the source or under a name are the forms on record and can include a tag or linker.
UniProt Q02248: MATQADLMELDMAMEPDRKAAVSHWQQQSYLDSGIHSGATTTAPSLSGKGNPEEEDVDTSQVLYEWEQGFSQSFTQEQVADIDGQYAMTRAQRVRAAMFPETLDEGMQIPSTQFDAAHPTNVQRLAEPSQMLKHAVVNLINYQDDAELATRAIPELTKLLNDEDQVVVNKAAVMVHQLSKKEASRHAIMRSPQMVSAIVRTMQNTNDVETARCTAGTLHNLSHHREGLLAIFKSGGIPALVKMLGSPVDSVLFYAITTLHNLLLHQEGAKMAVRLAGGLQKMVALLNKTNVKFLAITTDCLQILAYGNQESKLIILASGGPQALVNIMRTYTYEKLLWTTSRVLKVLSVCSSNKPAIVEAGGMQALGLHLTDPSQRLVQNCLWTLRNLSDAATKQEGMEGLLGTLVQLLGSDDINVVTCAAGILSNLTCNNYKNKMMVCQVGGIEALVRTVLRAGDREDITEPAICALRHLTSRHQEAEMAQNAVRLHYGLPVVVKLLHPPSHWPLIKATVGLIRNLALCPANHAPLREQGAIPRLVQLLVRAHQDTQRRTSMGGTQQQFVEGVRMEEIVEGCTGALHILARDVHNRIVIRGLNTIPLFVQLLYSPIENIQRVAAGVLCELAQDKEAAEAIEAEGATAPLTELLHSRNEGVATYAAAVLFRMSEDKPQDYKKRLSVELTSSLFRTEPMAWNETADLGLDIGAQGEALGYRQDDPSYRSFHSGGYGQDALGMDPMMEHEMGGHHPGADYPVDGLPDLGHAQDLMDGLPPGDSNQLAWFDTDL
UniProt P26231: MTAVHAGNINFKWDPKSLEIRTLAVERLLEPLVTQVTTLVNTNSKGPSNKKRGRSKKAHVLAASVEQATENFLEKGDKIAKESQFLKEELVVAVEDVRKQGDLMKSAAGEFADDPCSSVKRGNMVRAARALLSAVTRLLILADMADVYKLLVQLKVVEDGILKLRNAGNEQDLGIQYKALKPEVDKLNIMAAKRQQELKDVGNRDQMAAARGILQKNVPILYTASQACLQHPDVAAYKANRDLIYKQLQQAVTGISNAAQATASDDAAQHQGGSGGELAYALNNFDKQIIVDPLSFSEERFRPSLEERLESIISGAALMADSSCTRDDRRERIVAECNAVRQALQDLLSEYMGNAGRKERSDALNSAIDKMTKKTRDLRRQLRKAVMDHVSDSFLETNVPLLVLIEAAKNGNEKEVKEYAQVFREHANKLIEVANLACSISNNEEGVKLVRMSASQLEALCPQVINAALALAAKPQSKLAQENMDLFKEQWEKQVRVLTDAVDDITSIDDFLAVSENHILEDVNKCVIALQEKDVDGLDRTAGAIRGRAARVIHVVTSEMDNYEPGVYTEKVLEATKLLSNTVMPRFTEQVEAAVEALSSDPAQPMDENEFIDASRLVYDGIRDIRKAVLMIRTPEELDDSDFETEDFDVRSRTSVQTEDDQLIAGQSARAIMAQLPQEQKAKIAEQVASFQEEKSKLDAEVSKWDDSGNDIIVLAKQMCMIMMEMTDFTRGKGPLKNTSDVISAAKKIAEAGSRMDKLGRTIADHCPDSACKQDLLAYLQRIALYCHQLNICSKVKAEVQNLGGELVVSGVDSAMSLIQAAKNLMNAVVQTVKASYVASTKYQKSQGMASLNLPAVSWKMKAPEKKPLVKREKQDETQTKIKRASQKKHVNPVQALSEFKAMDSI
αE-catenin α(CA), as it stands in the tetramer and pentamer (P26231, form named): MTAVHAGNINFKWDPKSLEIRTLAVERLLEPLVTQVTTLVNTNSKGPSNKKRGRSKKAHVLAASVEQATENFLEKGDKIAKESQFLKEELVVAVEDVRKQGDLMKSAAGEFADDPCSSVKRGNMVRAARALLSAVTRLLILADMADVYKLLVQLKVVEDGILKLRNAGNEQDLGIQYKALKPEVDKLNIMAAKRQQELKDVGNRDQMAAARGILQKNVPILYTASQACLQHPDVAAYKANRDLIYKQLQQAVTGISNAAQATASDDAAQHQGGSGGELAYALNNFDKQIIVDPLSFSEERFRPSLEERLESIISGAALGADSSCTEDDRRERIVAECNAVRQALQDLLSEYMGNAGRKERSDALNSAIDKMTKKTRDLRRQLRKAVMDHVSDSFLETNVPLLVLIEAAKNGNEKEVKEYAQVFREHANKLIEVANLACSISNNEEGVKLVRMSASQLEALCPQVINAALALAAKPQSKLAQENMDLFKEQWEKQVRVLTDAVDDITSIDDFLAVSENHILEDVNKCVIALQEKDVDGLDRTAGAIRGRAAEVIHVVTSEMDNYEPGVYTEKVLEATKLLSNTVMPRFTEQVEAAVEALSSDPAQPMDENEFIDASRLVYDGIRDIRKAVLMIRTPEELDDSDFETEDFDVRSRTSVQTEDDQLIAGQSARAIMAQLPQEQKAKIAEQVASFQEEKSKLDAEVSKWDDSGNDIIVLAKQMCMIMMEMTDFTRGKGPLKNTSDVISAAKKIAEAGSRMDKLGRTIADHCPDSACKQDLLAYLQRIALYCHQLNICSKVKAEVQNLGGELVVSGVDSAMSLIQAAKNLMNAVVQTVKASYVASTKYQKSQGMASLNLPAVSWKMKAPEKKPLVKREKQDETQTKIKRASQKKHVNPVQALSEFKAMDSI
vinculin(T12) (P18206-2, form named): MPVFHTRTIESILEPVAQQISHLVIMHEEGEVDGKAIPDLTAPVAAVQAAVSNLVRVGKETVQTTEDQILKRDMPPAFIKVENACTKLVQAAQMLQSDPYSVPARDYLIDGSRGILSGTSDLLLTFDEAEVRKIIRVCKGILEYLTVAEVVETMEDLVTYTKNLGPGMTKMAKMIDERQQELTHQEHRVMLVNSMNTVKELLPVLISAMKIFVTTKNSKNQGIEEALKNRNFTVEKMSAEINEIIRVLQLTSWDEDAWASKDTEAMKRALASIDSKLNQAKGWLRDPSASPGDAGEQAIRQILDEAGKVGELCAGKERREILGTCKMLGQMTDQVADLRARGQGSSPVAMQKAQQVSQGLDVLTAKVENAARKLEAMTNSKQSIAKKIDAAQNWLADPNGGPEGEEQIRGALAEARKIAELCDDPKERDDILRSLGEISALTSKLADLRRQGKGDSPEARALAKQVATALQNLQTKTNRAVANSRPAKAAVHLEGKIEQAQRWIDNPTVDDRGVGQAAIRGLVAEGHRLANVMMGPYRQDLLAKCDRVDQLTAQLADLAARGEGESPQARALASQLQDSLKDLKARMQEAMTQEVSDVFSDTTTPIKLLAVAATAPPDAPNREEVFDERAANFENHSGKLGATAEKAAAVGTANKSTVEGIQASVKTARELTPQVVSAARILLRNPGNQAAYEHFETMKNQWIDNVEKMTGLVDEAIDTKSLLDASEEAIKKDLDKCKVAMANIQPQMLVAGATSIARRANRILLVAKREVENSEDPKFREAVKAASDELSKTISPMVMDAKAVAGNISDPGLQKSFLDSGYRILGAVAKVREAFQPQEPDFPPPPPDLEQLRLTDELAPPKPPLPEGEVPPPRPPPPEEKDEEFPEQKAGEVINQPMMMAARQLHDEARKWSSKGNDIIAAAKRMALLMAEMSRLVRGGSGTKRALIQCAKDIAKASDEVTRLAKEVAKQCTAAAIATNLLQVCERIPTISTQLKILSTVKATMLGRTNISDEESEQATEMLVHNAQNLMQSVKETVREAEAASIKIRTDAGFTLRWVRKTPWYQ

Columns and labels:
[1] = biological target: full-length β-catenin (mouse) (UniProt Q02248); test: co-purification of co-expressed proteins (affinity, size exclusion); co-expressed in FreeStyle 293-F; trimer: anti-GFP beads, TEV, MonoQ, Superdex 200; tetramer: Flag M2 beads then anti-GFP beads, TEV, Superose 6; 10 mM tris-HCl pH 8.0, 100 mM NaCl, 3 mM DTT
[2] = biological target: αE-catenin α(CA), as it stands in the tetramer and pentamer (mouse) (UniProt P26231); test: as above

Row | binding [1] | binding [2] | Substance
1 | binds | – | full-length αE-catenin (from UniProt P26231 1-906)
2 | – | binds | vinculin(T12) (from UniProt P18206-2 1-1066)
